These are yes or no findings as the source states them, for the method shown. In cells and extracts the contact can be indirect. Some binding calls cover weakened binding; strength is not graded here. Sequences can lack the tags named with a protein.

In the test the target is HA-p65 (full-length), Q04206. Put plainly: co-IP. As to conditions: remark: other sources report otherwise.

B1: Flag-NSD2, O96028 1-1365 (enzyme)
chain: MEFSIKQSPLSVQSVVKCIKMKQAPEILGSANGKTPSCEVNRECSVFLSKAQLSSSLQEGVMQKFNGHDALPFIPADKLKDLTSRVFNGEPGAHDAKLRFESQEMKGIGTPPNTTPIKNGSPEIKLKITKTYMNGKPLFESSICGDSAADVSQSEENGQKPENKARRNRKRSIKYDSLLEQGLVEAALVSKISSPSDKKIPAKKESCPNTGRDKDHLLKYNVGDLVWSKVSGYPWWPCMVSADPLLHSYTKLKGQKKSARQYHVQFFGDAPERAWIFEKSLVAFEGEGQFEKLCQESAKQAPTKAEKIKLLKPISGKLRAQWEMGIVQAEEAASMSVEERKAKFTFLYVGDQLHLNPQVAKEAGIAAESLGEMAESSGVSEEAAENPKSVREECIPMKRRRRAKLCSSAETLESHPDIGKSTPQKTAEADPRRGVGSPPGRKKTTVSMPRSRKGDAASQFLVFCQKHRDEVVAEHPDASGEEIEELLRSQWSLLSEKQRARYNTKFALVAPVQAEEDSGNVNGKKRNHTKRIQDPTEDAEAEDTPRKRLRTDKHSLRKRDTITDKTARTSSYKAMEAASSLKSQAATKNLSDACKPLKKRNRASTAASSALGFSKSSSPSASLTENEVSDSPGDEPSESPYESADETQTEVSVSSKKSERGVTAKKEYVCQLCEKPGSLLLCEGPCCGAFHLACLGLSRRPEGRFTCSECASGIHSCFVCKESKTDVKRCVVTQCGKFYHEACVKKYPLTVFESRGFRCPLHSCVSCHASNPSNPRPSKGKMMRCVRCPVAYHSGDACLAAGCSVIASNSIICTAHFTARKGKRHHAHVNVSWCFVCSKGGSLLCCESCPAAFHPDCLNIEMPDGSWFCNDCRAGKKLHFQDIIWVKLGNYRWWPAEVCHPKNVPPNIQKMKHEIGEFPVFFFGSKDYYWTHQARVFPYMEGDRGSRYQGVRGIGRVFKNALQEAEARFREIKLQREARETQESERKPPPYKHIKVNKPYGKVQIYTADISEIPKCNCKPTDENPCGFDSECLNRMLMFECHPQVCPAGEFCQNQCFTKRQYPETKIIKTDGKGWGLVAKRDIRKGEFVNEYVGELIDEEECMARIKHAHENDITHFYMLTIDKDRIIDAGPKGNYSRFMNHSCQPNCETLKWTVNGDTRVGLFAVCDIPAGTELTFNYNLDCLGNEKTVCRCGASNCSGFLGDRPKTSTTLSSEEKGKKTKKKTRRRRAKGEGKRQSEDECFRCGDGGQLVLCDRKFCTKAYHLSCLGLGKRPFGKWECPWHHCDVCGKPSTSFCHLCPNSFCKEHQDGTAFSCTPDGRSYCCEHDLGAASVRSTKTEKPPPEPGKPKGKRRRRRGWRRVTEGK
For the molecule B1, the binding entry was “binds”.

The values above are taken from paper doi:10.1101/2023.09.11.557111.
